According to PubChem BioAssay AID248 (DTP/NCI, 2004):
The list does not hold the whole screen: it gathers tests that were run many times, whatever their T/C, doses with no T/C, and many T/C values between a quarter and a half above the control. Other doses and runs of a compound stand elsewhere. T/C: endpoint of the treated group in % of that of the vehicle group. Some entries give survivors of the animals treated and no T/C: the source files T/C as zero there, which appears to mark a toxic dose or a test without result, not a measured value. Some survivor counts are full or nearly so, which does not show that the dose was tolerated: survival well below the control is almost never listed, so the zero probably covers shortened survival too. Counts of survivors are from the toxicity check (mostly the fifth day) where no day follows; animals may have died later. Schedule codes are those of the source, taken here to give the interval after Q, in days (D) or hours (H), and the number of doses after X. Some molecules as drawn cover several salts, stereoisomers or complexes of the source; a dose is that of the sample tested. Some entries were tested several times; the results are listed from low to high. Where survival is the endpoint, this PubChem deposit counts one and a half times the control or more as active, and values a quarter to a half above the control carry no call in these data; other NCI protocols may use other cut-offs.

Tested on: L1210 leukemia ip in BDF1 mice, survival T/C
Assay: NCI In Vivo Anticancer Drug Screen. Data for tumor model L1210 Leukemia (intraperitoneal) in B6D2F1 (BDF1) mice
Conditions: T/C endpoint: mean survival time, higher T/C = longer survival
[1] = dose: 400.0 mg/kg/injection, schedule: Q01DX001 (ip), vehicle: saline
[2] = dose: 400.0 mg/kg/injection, schedule: Q04DX003 (ip), vehicle: Klucel (hydroxypropylcellulose) (HPC)
[3] = dose: 400.0 mg/kg/injection, schedule: Q01DX009 (ip), vehicle: Klucel (hydroxypropylcellulose) (HPC)
[4] = dose: 40.0 mg/kg/injection, schedule: Q01DX001 (ip), vehicle: saline
[5] = dose: 80.0 mg/kg/injection, schedule: Q01DX001 (ip), vehicle: saline
[6] = dose: 200.0 mg/kg/injection, schedule: Q04DX003 (ip), vehicle: saline with Tween-80
[7] = dose: 400.0 mg/kg/injection, schedule: Q04DX003 (ip), vehicle: saline with Tween-80
[8] = dose: 200.0 mg/kg/injection, schedule: Q04DX003 (ip), vehicle: saline
[9] = dose: 400.0 mg/kg/injection, schedule: Q04DX003 (ip), vehicle: saline
[10] = dose: 100.0 mg/kg/injection, schedule: Q04DX003 (ip), vehicle: saline with Tween-80

SMILES: C[C@H](OC(=O)CCl)[C@@H](C)OC(=O)CCl
- survivor count (dose: 200.0 mg/kg/injection, schedule: Q01DX001 (sc), vehicle: carboxymethylcellulose (CMC)): 0 of 4
- survivor count (dose: 400.0 mg/kg/injection, schedule: Q01DX001 (sc), vehicle: carboxymethylcellulose (CMC)): 0 of 4

SMILES: COc1cc(C=NCCN=Cc2cc(OC)c(OC)c(OC)c2)cc(OC)c1OC
- survivor count (dose: 200.0 mg/kg/injection, schedule: Q01DX009 (ip), vehicle: saline with Tween-80): 6 of 6

SMILES: O=C1CCC(=O)N1[N+](=O)[O-]
- survivor count [1]: 1 of 4 and 2 of 4

SMILES: Cc1ccc(S(=O)(=O)N(Cl)Cl)cc1
- survivor count (dose: 12.5 mg/kg/injection, schedule: Q01DX009 (ip), vehicle: Klucel (hydroxypropylcellulose) (HPC)): 6 of 6
- survivor count (dose: 50.0 mg/kg/injection, schedule: Q04DX003 (ip), vehicle: Klucel (hydroxypropylcellulose) (HPC)): 1 of 6
- survivor count (dose: 100.0 mg/kg/injection, schedule: Q04DX003 (ip), vehicle: Klucel (hydroxypropylcellulose) (HPC)): 0 of 6
- survivor count (dose: 200.0 mg/kg/injection, schedule: Q04DX003 (ip), vehicle: Klucel (hydroxypropylcellulose) (HPC)): 0 of 6
- survivor count [2]: 2 of 6

SMILES: C=CS(=O)(=O)CCOc1ccc(Cl)cc1Cl
- survivor count [3]: 2 of 6

SMILES: NNc1ncccn1
- survivor count [4]: 0 of 6
- survivor count [5]: 0 of 6

SMILES: C=CCc1ccc(OC(=O)NC(C)C)c(OC)c1
- survivor count [3]: 3 of 3

SMILES: CCOC(=O)CC/C(=C/c1ccccc1)[N+](=O)[O-]
- survivor count [6]: 2 of 6
- survivor count [7]: 0 of 3

SMILES: CC(=O)OC1CCC2(C)C(CCC3C2CCC2(C)C3CC3OC(CCCC(C)CO)C(C)C32)C1 (configuration not stated)
- survivor count (dose: 100.0 mg/kg/injection, schedule: Q01DX001 (ip), vehicle: saline with Tween-80): 3 of 3
- survivor count (dose: 200.0 mg/kg/injection, schedule: Q01DX001 (ip), vehicle: saline with Tween-80): 3 of 3

SMILES: CCCCC(CC)CNCC(CC)CCCC (configuration not stated)
- survivor count (dose: 200.0 mg/kg/injection, schedule: Q04DX013 (ip), vehicle: carboxymethylcellulose (CMC)): 1 of 6
- survivor count (dose: 400.0 mg/kg/injection, schedule: Q04DX013 (ip), vehicle: carboxymethylcellulose (CMC)): 0 of 6

SMILES: OCc1ccn2c1C(O)CC2 (configuration not stated)
- T/C (dose: 66.0 mg/kg/injection, schedule: Q01DX009 (ip), vehicle: saline): 147 % of control
- T/C (dose: 100.0 mg/kg/injection, schedule: Q01DX009 (ip), vehicle: saline): 149 % of control
- survivor count (dose: 225.0 mg/kg/injection, schedule: Q01DX009 (ip), vehicle: saline): 2 of 6
- survivor count (dose: 340.0 mg/kg/injection, schedule: Q01DX009 (ip), vehicle: saline): 0 of 6

SMILES: O=C(N/N=C/c1ccco1)C1CCCO1 (configuration not stated)
- survivor count [3]: 0 of 6

SMILES: Oc1ccc(Cl)cc1Sc1cc(Cl)ccc1O
- survivor count [8]: 2 of 6
- survivor count [9]: 2 of 6

SMILES: CC/C(=C/c1cccc(OC)c1OC)[N+](=O)[O-]
- survivor count [7]: 5 of 6

SMILES: C[N+]1(CCC(c2ccccc2)c2ccccc2)CCCCC1
- survivor count (dose: 100.0 mg/kg/injection, schedule: Q04DX003 (ip), vehicle: saline): 4 of 6
- survivor count [8]: 1 of 6
- survivor count [9]: 0 of 6

SMILES: Clc1ccc(N=Cc2ccc(C=Nc3ccc(Cl)c(Cl)c3)cc2)cc1Cl
- survivor count (dose: 100.0 mg/kg/injection, schedule: Q01DX009 (ip), vehicle: saline sonified): 6 of 6
- survivor count (dose: 400.0 mg/kg/injection, schedule: Q01DX009 (ip), vehicle: saline sonified): 6 of 6

SMILES: C[N+](C)(C)CSSC[N+](C)(C)C
- survivor count [10]: 4 of 6
- survivor count [6]: 0 of 6
- survivor count [7]: 0 of 6

SMILES: CN(C=O)C(=S)[S][Sb]([S]C(=S)N(C)C=O)[S]c1nc2ccc(N=Nc3ccc(NS(=O)(=O)c4ccc(NC(=O)C(Cl)Cl)cc4)cc3)cc2s1
- survivor count (dose: 200.0 mg/kg/injection, schedule: Q01DX001 (ip), vehicle: steroid suspending solution): 1 of 6
- survivor count (dose: 400.0 mg/kg/injection, schedule: Q01DX001 (ip), vehicle: steroid suspending solution): 1 of 6

SMILES: c1ccc2c(c1)CCN(C1=NCCO1)C2
- survivor count (dose: 75.0 mg/kg/injection, schedule: Q01DX001 (ip), vehicle: saline): 2 of 6
- survivor count (dose: 150.0 mg/kg/injection, schedule: Q01DX001 (ip), vehicle: saline): 0 of 6
- survivor count (dose: 300.0 mg/kg/injection, schedule: Q01DX001 (ip), vehicle: saline): 0 of 6

SMILES: Nc1ccc2cc3ccc(N)cc3nc2c1
- survivor count (dose: 100.0 mg/kg/injection, schedule: Q01DX001 (ip), vehicle: saline): 2 of 4
- survivor count (dose: 200.0 mg/kg/injection, schedule: Q01DX001 (ip), vehicle: saline): 0 of 4
- survivor count [1]: 0 of 4

SMILES: CN1CN(c2ccccc2)C2(CCN(CCCCCCCF)CC2)C1=O
- survivor count (dose: 75.0 mg/kg/injection, schedule: Q04DX003 (ip), vehicle: Klucel (hydroxypropylcellulose) (HPC)): 0 of 6
- survivor count (dose: 150.0 mg/kg/injection, schedule: Q04DX003 (ip), vehicle: Klucel (hydroxypropylcellulose) (HPC)): 0 of 6
- survivor count (dose: 300.0 mg/kg/injection, schedule: Q04DX003 (ip), vehicle: Klucel (hydroxypropylcellulose) (HPC)): 0 of 6

SMILES: CCCCCCCCCC[Se]C#N
- survivor count (dose: 20.0 mg/kg/injection, schedule: Q01DX001 (ip), vehicle: saline): 2 of 4
- survivor count [4]: 0 of 4
- survivor count [5]: 0 of 4

SMILES: COC(=O)COc1ccc(Cl)c2ccccc12
- survivor count (dose: 100.0 mg/kg/injection, schedule: Q04DX002 (ip), vehicle: Klucel (hydroxypropylcellulose) (HPC)): 3 of 3

SMILES: O=C1NC2CCC(NC(=O)N1c1ccccc1)C1=C2C1
- survivor count (dose: 25.0 mg/kg/injection, schedule: Q04DX003 (ip), vehicle: saline with Tween-80): 5 of 6
- survivor count [10]: 3 of 6
- survivor count [6]: 0 of 6
- survivor count [7]: 0 of 6

SMILES: CCC(C)c1ccc(O)c(CN(CCO)CCO)c1 (configuration not stated)
- survivor count [1]: 0 of 6

SMILES: CC1=CC2=C(C(=O)C1=O)C(C)CCC2C(C)C (configuration not stated)
- survivor count [1]: 0 of 6

SMILES: Cc1nc(CCl)no1
- survivor count (dose: 400.0 mg/kg/injection, schedule: Q04DX002 (ip), vehicle: saline with Tween-80): 1 of 3

SMILES: c1ccc([B-](c2ccccc2)([C+]2CCCCC2)N2CCCCC2)cc1
- survivor count (dose: 300.0 mg/kg/injection, schedule: Q01DX001 (ip), vehicle: carboxymethylcellulose (CMC)): 3 of 6

SMILES: CN(C)C(=O)OCC[N+](C)(C)CCCCCC[N+](C)(C)CCOC(=O)N(C)C
- survivor count (dose: 150.0 mg/kg/injection, schedule: Q04DX003 (ip), vehicle: saline): 2 of 6
- survivor count (dose: 300.0 mg/kg/injection, schedule: Q04DX003 (ip), vehicle: saline): 0 of 6

SMILES: CC(C)=CC(=O)CNC(N)=S
- survivor count [2]: 1 of 6

SMILES: O=C1c2ccccc2-c2nc3cncnc3nc21 (tested in a mixture with another compound)
- survivor count [9]: 2 of 6
